# PubChem BioAssay AID1224830, NIAID, 2016
# Screen: 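Host factors that control LPS-induced TNF expression in human macrophages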 (primary screen)
# Cells: human THP-1 monocytic leukaemia cells, TNF dual-luciferase reporter clone, PMA-differentiated to macrophage-like cells
# Reagent: siRNA pool against human genes, 50 nM
# Timing: LPS for 4 h, given about 3 days after siRNA transfection
# Challenge: bacterial LPS (TLR4 ligand), 10 ng/ml
# Detection: 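TNF firefly reporter luminescence divided by renilla, normalised to the plate median, then turned into a robust z-score for each replicate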
# Direction: TNF reporter robust z-score: higher = stronger TNF reporter response to LPS
# Hit rule: 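a well is active when its z-score exceeds 2.8 or falls below -1.5; control wells carry no call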
# Here is an unselected part of about 18,000 reagents. About 2,900 of all reagents (16%) count as active. 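Calls are made per well; low scores hint the gene aids the LPS response, high scores that it dampens it.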 Repeated entries: four replicate wells of each siRNA pool.
gene,TNF reporter robust z-score,Call
HDGF,0.18,inactive
HDGF,0.64,inactive
HDGF,0.02,inactive
HDGF,0.01,inactive
BCLAF3,2.32,inactive
BCLAF3,0.85,inactive
BCLAF3,-0.99,inactive
BCLAF3,-0.88,inactive
NGEF,1.45,inactive
NGEF,0.62,inactive
NGEF,0.22,inactive
NGEF,-0.23,inactive
ECHDC3,-0.1,inactive
ECHDC3,0.72,inactive
ECHDC3,-0.11,inactive
ECHDC3,0.14,inactive
SBK1,0.38,inactive
SBK1,-0.77,inactive
SBK1,-1.44,inactive
SBK1,0.07,inactive
HSPB3,0.48,inactive
HSPB3,-0.19,inactive
HSPB3,0.83,inactive
HSPB3,0.81,inactive
USP4,0.18,inactive
USP4,2.42,inactive
USP4,0.53,inactive
TMEM169,2.71,inactive
TMEM169,1.35,inactive
TMEM169,1.42,inactive
TMEM169,1.79,inactive
CIB4,-0.78,inactive
CIB4,-0.81,inactive
CIB4,-1.06,inactive
CIB4,0.26,inactive
DPY19L3,0.42,inactive
DPY19L3,-1.1,inactive
DPY19L3,-1.42,inactive
DPY19L3,-1.07,inactive
NCOA6,-1.8,active
NCOA6,-1.78,active
NCOA6,-1.54,active
RIT2,0.42,inactive
RIT2,0.02,inactive
RIT2,0.93,inactive
RIT2,0.43,inactive
DUS1L,2.13,inactive
DUS1L,-0.19,inactive
DUS1L,1,inactive
DUS1L,0.19,inactive
FZD7,-1.18,inactive
FZD7,0.08,inactive
FZD7,-0.26,inactive
FZD7,1.06,inactive
EEF1AKMT2,0.65,inactive
EEF1AKMT2,2.02,inactive
EEF1AKMT2,2.64,inactive
EEF1AKMT2,1.32,inactive
CLEC12A,1.22,inactive
CLEC12A,-0.07,inactive
CLEC12A,-0.51,inactive
CLEC12A,1.35,inactive
YDJC,-0.17,inactive
YDJC,0.65,inactive
YDJC,-0.36,inactive
YDJC,0.57,inactive
SEC63,-0.29,inactive
SEC63,-1.34,inactive
SEC63,-1.5,inactive
SEC63,-0.85,inactive
F13B,-0.15,inactive
F13B,-0.04,inactive
F13B,-0.25,inactive
F13B,0.05,inactive
PSMD14,-1.18,inactive
PSMD14,0.62,inactive
PSMD14,0.46,inactive
PSMD14,0.25,inactive
DRAXIN,-1.7,active
DRAXIN,-0.99,inactive
DRAXIN,-1.66,active
DRAXIN,-1.49,inactive
ALPK3,2.57,inactive
ALPK3,3.93,active
ALPK3,2.14,inactive
ALPK3,1.69,inactive
OR2T27,2.39,inactive
OR2T27,0.33,inactive
OR2T27,1.98,inactive
OR2T27,1.91,inactive
NOC3L,-0.21,inactive
NOC3L,0.19,inactive
NOC3L,1.94,inactive
NOC3L,2.31,inactive
WASH5P,-0.72,inactive
WASH5P,0.02,inactive
WASH5P,-1.27,inactive
WASH5P,0.65,inactive
CSAD,-0.97,inactive
CSAD,-0.67,inactive
CSAD,-1.9,active
CSAD,-0.47,inactive
NCS1,-0.73,inactive
NCS1,-0.95,inactive
NCS1,-0.51,inactive
NCS1,-0.36,inactive
TRNT1,-0.89,inactive
TRNT1,-0.33,inactive
TRNT1,0.03,inactive
TRNT1,-0.91,inactive
HCP5,1.28,inactive
HCP5,0.26,inactive
HCP5,0.48,inactive
HCP5,1.39,inactive
GLIPR1L2,-0.75,inactive
GLIPR1L2,1.32,inactive
GLIPR1L2,0.47,inactive
GLIPR1L2,-0.08,inactive
PFDN5,-0.07,inactive
PFDN5,-0.36,inactive
PFDN5,-0.65,inactive
PFDN5,-0.6,inactive
ATG9B,-0.9,inactive
ATG9B,-0.75,inactive
ATG9B,-1.14,inactive
ATG9B,-0.16,inactive
C9orf85,-0.2,inactive
C9orf85,0.09,inactive
C9orf85,-0.74,inactive
C9orf85,0.23,inactive
SPAG16,0.41,inactive
SPAG16,-0.74,inactive
SPAG16,-1.05,inactive
SPAG16,-1.29,inactive
DPYSL5,1.18,inactive
DPYSL5,3.29,active
DPYSL5,3.14,active
DPYSL5,1.17,inactive
IFNLR1,2.78,inactive
IFNLR1,3.58,active
IFNLR1,3.95,active
IFNLR1,4.68,active

Active calls, of those listed so far:
gene,TNF reporter robust z-score,Call
NCOA6,-1.8,active
NCOA6,-1.78,active
NCOA6,-1.54,active
DRAXIN,-1.7,active
DRAXIN,-1.66,active
ALPK3,3.93,active
CSAD,-1.9,active
DPYSL5,3.29,active
DPYSL5,3.14,active
IFNLR1,3.58,active
IFNLR1,3.95,active
IFNLR1,4.68,active
